Like-named read-outs stand apart in the source and are kept apart here. No constants are given. Whether binding was seen depends on the method and setting. For some assays here: A result given as binding can be weak or reduced; the word gives no strength. For some assays here: Where a sequence is shown, tags or fusion partners need not be part of it. Each block holds one molecule with its values, some of them ahead of it.
Experiments:
SUMO2 [1] = target: SUMO2 (UniProt P61956); experiment: pull-down; SUMO1-, SUMO2- or SUMO3-agarose incubated with the recombinant protein for 2 h at room temperature in 50 mM HEPES pH 8.0, 1 mM EDTA, 1 mM DTT, 0.05% C12E10; washed beads boiled, immunoblot; both purified
SUMO2 [2] = target: SUMO2 (UniProt P61956); experiment: as above; remark: listed apart in the source

By UniProt entry, the sequences of proteins in these tests, tags left out. Where a name states a change or a piece, a line headed by the entry shows the natural chain unless it says otherwise.
UniProt P61956: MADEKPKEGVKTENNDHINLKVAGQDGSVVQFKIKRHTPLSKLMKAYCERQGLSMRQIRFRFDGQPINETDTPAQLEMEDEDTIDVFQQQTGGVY
UniProt P04897: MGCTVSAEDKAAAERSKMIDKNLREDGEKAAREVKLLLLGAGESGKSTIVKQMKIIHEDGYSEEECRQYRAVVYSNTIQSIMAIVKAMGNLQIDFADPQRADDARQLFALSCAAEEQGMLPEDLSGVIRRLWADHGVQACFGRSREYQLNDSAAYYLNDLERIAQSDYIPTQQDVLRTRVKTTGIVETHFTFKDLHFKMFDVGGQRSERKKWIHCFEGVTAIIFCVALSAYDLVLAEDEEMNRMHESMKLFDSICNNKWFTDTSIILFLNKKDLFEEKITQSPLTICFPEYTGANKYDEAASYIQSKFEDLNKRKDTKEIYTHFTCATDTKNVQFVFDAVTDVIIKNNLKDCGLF

- binding (SUMO2 [1]): no binding
Molecule: Gαi2 subunit (from UniProt P04897 1-355)

- binding (SUMO2 [2]): binds
B1: RGSZ2 (regulator of G protein signaling 17), recombinant, GST-free (protein, UniProt Q9QZB0 1-210)
chain: MRKRQQSQNEGTQAVSQAPGNQRPNNTCCFCWCCCCSCSCLTVRNEERGDSSGRSPHTTKMESIQVLEECQNPTADEVLSWSQNFDKMMKTPAGRNLFREFLRTEYSEENLLFWLACEDLKKEQNKKAVEEKARMIYEDYISILSPKEVSLDSRVREVINRSLLDPSPHMYEDAQLQIYTLMHRDSFPRFLNSQIYKAFVESTTSCTSES

From PMC3232247
